# PubChem BioAssay AID1224830 – NIAID | 2016
# Test: 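Genes whose knock-down alters the TNF-alpha reporter response to LPS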 (primary screen)
# System: human THP-1 monocytic leukaemia cells, TNF dual-luciferase reporter clone, PMA-differentiated to macrophage-like cells
# Reagents: siRNA pool against human genes, 50 nM
# Duration: LPS for 4 h, given about 3 days after siRNA transfection
# Challenge: bacterial LPS (TLR4 ligand), 10 ng/ml
# Measured: 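Ratio of firefly to renilla light, scaled to the plate median and expressed as a robust z-score per replicate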
# Scale: TNF reporter robust z-score: higher = stronger TNF reporter response to LPS
# Rule for the call: 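a well is active when its z-score exceeds 2.8 or falls below -1.5; control wells carry no call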
# The deposit covers about 18,000 reagents; this is an unselected part. About 2,900 of them (16%) were called active. 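Calls are made per well; low scores hint the gene aids the LPS response, high scores that it dampens it.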 A number with no mark means an inactive call. Repeated entries: four replicate wells of each siRNA pool.
Gene,TNF reporter robust z-score
ACR,0.03
ACR,1.02
ACR,0.26
ACR,0.1
RASA4,-1.85 (active)
RASA4,-1.69 (active)
RASA4,-1.73 (active)
KDM6B,-0.2
KDM6B,0.71
KDM6B,0.13
KDM6B,0.82
GTSE1,0.15
GTSE1,-0.86
GTSE1,-1.99 (active)
GTSE1,-1.29
ITGA5,-0.93
ITGA5,-0.98
ITGA5,-0.92
ITGA5,-0.16
TOP3B,0.14
TOP3B,0.58
TOP3B,1.02
TOP3B,0.98
CD72,0.84
CD72,0.2
CD72,0.89
CD72,-0.78
NHP2,-0.12
NHP2,-0.54
NHP2,0.25
NHP2,-0.1
OR52H1,-0.61
OR52H1,0.01
OR52H1,-0.33
OR52H1,0.18
SHOX,-0.34
SHOX,0.92
SHOX,1.37
SHOX,2.17
SUMF2,2.37
SUMF2,4.23 (active)
SUMF2,1
SUMF2,2.18
ABLIM3,-0.47
ABLIM3,0.58
ABLIM3,-0.01
ABLIM3,1.16
CCHCR1,2.37
CCHCR1,3.41 (active)
CCHCR1,2.3
ENTPD8,1.85
ENTPD8,3.1 (active)
ENTPD8,2.25
ENTPD8,2.77
DDR1,0.5
DDR1,1.18
DDR1,0.76
DDR1,1.69
LAIR1,-0.21
LAIR1,-0.72
LAIR1,-0.6
LAIR1,-0.71
PTGER4,0.44
PTGER4,0.89
PTGER4,1.44
PTGER4,0.01
PSMB10,-0.76
PSMB10,4.83 (active)
PSMB10,0.21
PSMB10,2.1
OR2L3,-1.25
OR2L3,-1.11
OR2L3,-1.14
OR2L3,-0.89
SGSM2,0.65
SGSM2,1.07
SGSM2,2.2
SGSM2,5.55 (active)

Entries listed so far called active, once more:
Gene,TNF reporter robust z-score
RASA4,-1.85 (active)
RASA4,-1.69 (active)
RASA4,-1.73 (active)
GTSE1,-1.99 (active)
SUMF2,4.23 (active)
CCHCR1,3.41 (active)
ENTPD8,3.1 (active)
PSMB10,4.83 (active)
SGSM2,5.55 (active)
